In publication PMC7613270 one finds binding data, which are given here for 1 substance.

Sequences of proteins named here, by UniProt entry; tags and fusion partners are left off.
UniProt O00165: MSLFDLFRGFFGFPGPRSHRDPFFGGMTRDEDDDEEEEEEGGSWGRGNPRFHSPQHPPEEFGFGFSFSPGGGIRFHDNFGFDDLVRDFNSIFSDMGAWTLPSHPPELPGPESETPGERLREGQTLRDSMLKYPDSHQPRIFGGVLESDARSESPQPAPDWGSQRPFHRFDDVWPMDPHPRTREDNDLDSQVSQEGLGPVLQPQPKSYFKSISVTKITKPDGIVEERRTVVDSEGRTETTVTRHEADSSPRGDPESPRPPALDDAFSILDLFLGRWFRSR

These are yes or no findings as the source states them, for the method shown. Some entries that bind do so weakly or less than the wild type.

In the experiment the target is EspO of Citrobacter rodentium ICC180, two-hybrid bait (pGBKT7) (Citrobacter rodentium ICC180) (UniProt D2TI12). The experiment can be described thus: two-hybrid.

As for “HAX-1 full length, two-hybrid prey (pGADT7-HAX-1) (from UniProt O00165 1-279)”, the binding result is “binds”.
